The target of test [1] is T1, PD-L1 protein (human, UniProt Q9NZQ7 19-238, limits assumed).
T1 construct: Plate-coated recombinant protein; also called human PD-L1 protein
Briefly: summary of FIG. 1 to FIG. 6 (ELISA).

Chains of the proteins cited; added tags and fusions are not shown. Lines headed by an entry give the natural chain unless they say otherwise; changes in a name come on top.
UniProt Q9NZQ7: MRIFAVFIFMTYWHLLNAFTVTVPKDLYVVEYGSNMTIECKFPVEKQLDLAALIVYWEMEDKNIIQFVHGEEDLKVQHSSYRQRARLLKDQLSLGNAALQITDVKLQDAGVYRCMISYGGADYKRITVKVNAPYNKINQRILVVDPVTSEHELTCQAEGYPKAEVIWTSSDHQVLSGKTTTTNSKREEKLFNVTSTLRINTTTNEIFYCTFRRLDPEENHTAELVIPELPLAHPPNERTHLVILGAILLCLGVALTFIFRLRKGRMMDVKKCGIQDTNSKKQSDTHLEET

Test [2] addresses T1, PD-L1 protein. The test can be described thus: ELISA: PD-L1 coated, FITC-labelled PPLC, HRP anti-FITC detection.

Results are given in words; binding and its absence hold for the method and conditions named. Some entries that bind do so weakly or less than the wild type.

The text below walks through data of patent US20210230286A1 (published 2021).

B1: PPLC peptide labeled with FITC (peptide)
peptide: VSVSHFQKVWVV
modifications: FITC fluorophore label (position of attachment not stated)
In the case of B1, the binding result in test [1] and in test [2] was “binds” in each case.
